Test results published in article PMC7862700.
Only a part is listed here, and it is no random draw. For part of these data: At the low end of the ranking the order means little. The list shows a part of the results. For part of these data: The source does not settle which construct or isoform was used.

Chains of the proteins cited; added tags and fusions are not shown. Lines headed by an entry give the natural chain unless they say otherwise; changes in a name come on top.
UniProt P32519: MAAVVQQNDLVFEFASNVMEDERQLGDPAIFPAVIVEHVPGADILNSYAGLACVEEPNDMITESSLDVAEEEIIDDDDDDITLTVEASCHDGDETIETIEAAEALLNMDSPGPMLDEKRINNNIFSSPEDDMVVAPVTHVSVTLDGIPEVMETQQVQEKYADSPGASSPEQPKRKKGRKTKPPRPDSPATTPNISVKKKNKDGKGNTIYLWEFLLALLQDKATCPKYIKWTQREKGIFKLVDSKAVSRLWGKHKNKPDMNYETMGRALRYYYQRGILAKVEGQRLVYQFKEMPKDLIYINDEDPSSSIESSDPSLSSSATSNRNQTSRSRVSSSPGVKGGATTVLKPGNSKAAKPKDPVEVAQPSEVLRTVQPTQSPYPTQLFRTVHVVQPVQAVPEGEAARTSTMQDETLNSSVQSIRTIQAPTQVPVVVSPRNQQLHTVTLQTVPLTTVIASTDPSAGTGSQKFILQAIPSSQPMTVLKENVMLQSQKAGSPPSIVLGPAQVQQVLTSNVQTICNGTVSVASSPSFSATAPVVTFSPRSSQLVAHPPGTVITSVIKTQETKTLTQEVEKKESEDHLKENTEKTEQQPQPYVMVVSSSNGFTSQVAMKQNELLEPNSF
UniProt P50549: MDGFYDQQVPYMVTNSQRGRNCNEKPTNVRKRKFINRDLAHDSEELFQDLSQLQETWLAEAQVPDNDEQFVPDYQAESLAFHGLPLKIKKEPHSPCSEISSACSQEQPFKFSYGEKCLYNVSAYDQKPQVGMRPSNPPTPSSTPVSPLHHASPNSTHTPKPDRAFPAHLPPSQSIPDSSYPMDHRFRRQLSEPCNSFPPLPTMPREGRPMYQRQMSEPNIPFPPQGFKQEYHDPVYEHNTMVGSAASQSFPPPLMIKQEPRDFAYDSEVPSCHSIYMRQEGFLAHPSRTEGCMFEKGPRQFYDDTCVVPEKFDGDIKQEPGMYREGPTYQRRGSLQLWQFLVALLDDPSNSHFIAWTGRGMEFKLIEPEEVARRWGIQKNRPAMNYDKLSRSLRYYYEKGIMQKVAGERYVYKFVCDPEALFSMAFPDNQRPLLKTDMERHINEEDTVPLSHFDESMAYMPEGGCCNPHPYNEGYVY

Target: ELF1 (UniProt P32519)
Assay: DAPPL (digital affinity profiling via proximity ligation, sequencing)
Conditions: 10 mM Tris-HCl pH 7.5, 50 mM NaCl, 1 mM DTT, 4% glycerol, room temperature, 30 min; GST-TFs on glutathione beads, 16-mer random dsDNA library, 0.1% …; high values mean tight binding; double strand, one strand shown; scale: fold enrichment (6-mer frequency, TF over GST control)

Row | Sequence | binding signal
1 | CATGCC | 1.16
2 | CATATG | 0.995
3 | GTAGTT | 0.996
4 | TGGCTC | 1.46
5 | TGTTTA | 1.13
6 | AGGTTT | 0.975
7 | TTGACG | 1.1
8 | TAGCAA | 1.23
9 | AGAACA | 1.07
10 | TAGTAG | 0.964
11 | GTGTTA | 0.915
12 | TACTCA | 1.19
13 | TGTTCC | 1.66
14 | GTTGAT | 1.11
15 | ACTGGT | 1.13
16 | TGAATA | 1.1
17 | GCTTCT | 1.59
18 | TGCTCG | 1.18
19 | ATGAAG | 1.04

Target: T1, ETV4 (UniProt P43268)
T1 sequence: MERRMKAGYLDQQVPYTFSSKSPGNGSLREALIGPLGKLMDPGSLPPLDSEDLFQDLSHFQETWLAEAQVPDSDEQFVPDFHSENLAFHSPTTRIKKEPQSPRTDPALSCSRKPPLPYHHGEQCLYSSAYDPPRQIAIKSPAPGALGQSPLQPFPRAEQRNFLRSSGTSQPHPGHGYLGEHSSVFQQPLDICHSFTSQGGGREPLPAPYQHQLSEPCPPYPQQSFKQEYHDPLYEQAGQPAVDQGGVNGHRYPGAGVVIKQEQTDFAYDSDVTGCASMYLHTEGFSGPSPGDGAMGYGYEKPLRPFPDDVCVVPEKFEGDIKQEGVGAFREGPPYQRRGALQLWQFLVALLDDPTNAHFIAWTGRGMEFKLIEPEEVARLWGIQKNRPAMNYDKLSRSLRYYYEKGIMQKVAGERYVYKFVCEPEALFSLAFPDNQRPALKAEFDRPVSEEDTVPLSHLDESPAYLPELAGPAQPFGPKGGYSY
Assay: as above
Conditions: 10 mM Tris-HCl pH 7.5, 50 mM NaCl, 1 mM DTT, 4% glycerol, room temperature, 30 min; GST-TFs on glutathione beads, 16-mer random dsDNA library, 0.1% …; high values mean tight binding; double strand, one strand shown; scale: fold enrichment (6-mer frequency, TF over GST control)

Row | Sequence | binding signal
20 | TTAAGG | 1.04
21 | CATGCC | 1.18
22 | CATATG | 1.09
23 | GACTTC | 2.71
24 | AAACTA | 1.23
25 | GCTACT | 1.37
26 | GTAGTT | 0.961
27 | CTCGGC | 1.44
28 | CCTCGG | 1.25
29 | CCTTAC | 1.29
30 | CTGCAT | 1.39
31 | GTTTTA | 1.06
32 | TGGCTC | 1.56
33 | TGTTTA | 1.12
34 | AGGTTT | 1.04
35 | TTGACG | 1.12
36 | TAGCAA | 1.24
37 | CACCTT | 1.23
38 | AGAACA | 0.961
39 | TAGTAG | 0.999

Row | Sequence | binding signal
40 | GTGTTA | 0.955
41 | ATTCAA | 1.27
42 | TACTCA | 1.27
43 | AACTCA | 1.21
44 | TTGCCC | 1.36
45 | TGTTCC | 1.7
46 | ACACTG | 1.13
47 | CCACTC | 1.32
48 | CCCGCT | 1.37
49 | CTGGAA | 1.2
50 | GTTGAT | 1.17
51 | CTGTGC | 1.2
52 | AATAAA | 1.22
53 | ACTGGT | 0.997
54 | TGAATA | 1.11
55 | AATCCG | 1.54
56 | ACGGAT | 1.3
57 | GCTTCT | 1.57
58 | TGCTCG | 1.31
59 | ATGAAG | 1.08

Target: ETV1 (UniProt P50549)
Assay: as above
Conditions: 10 mM Tris-HCl pH 7.5, 50 mM NaCl, 1 mM DTT, 4% glycerol, room temperature, 30 min; GST-TFs on glutathione beads, 16-mer random dsDNA library, 0.1% …; high values mean tight binding; double strand, one strand shown; scale: fold enrichment (6-mer frequency, TF over GST control)

Row | Sequence | binding signal
60 | CATGCC | 1.12
61 | CATATG | 0.97
62 | GTAGTT | 0.987
63 | TGGCTC | 1.42
64 | TGTTTA | 1.09
65 | AGGTTT | 1.1
66 | TTGACG | 0.989
67 | TAGCAA | 1.23
68 | AGAACA | 1.02
69 | TAGTAG | 0.94
70 | GTGTTA | 0.94
71 | TACTCA | 1.19
72 | TGTTCC | 1.86
73 | GTTGAT | 1.09
74 | ACTGGT | 0.957
75 | TGAATA | 1.15
76 | GCTTCT | 1.42
77 | TGCTCG | 1.28
78 | ATGAAG | 0.98

Target: T2, ERF (UniProt P50548)
T2 sequence: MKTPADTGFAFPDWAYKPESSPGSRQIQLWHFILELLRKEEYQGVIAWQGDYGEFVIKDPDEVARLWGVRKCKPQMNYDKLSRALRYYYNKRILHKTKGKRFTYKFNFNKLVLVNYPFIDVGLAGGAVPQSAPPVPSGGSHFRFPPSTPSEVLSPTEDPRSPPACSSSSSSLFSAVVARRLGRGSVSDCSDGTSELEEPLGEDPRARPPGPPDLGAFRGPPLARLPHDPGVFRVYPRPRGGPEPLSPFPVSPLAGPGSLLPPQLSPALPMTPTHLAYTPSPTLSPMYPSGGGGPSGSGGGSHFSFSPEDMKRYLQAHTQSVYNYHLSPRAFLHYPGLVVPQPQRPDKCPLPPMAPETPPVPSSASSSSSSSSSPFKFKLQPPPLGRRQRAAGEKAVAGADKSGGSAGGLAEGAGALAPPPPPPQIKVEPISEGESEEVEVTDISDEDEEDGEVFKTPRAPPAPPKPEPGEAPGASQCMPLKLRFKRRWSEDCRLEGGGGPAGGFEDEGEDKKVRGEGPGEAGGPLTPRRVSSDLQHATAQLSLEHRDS
Assay: as above
Conditions: 10 mM Tris-HCl pH 7.5, 50 mM NaCl, 1 mM DTT, 4% glycerol, room temperature, 30 min; GST-TFs on glutathione beads, 16-mer random dsDNA library, 0.1% …; high values mean tight binding; double strand, one strand shown; scale: fold enrichment (6-mer frequency, TF over GST control)

Row | Sequence | binding signal
79 | TTAAGG | 1.16
80 | GACTTC | 2.25
81 | AAACTA | 1.29
82 | GCTACT | 1.52
83 | CTCGGC | 1.34
84 | CCTCGG | 1.23
85 | CCTTAC | 1.32
86 | CTGCAT | 1.38
87 | GTTTTA | 1.2
88 | CACCTT | 1.33
89 | ATTCAA | 1.38
90 | AACTCA | 1.18
91 | TTGCCC | 1.3
92 | ACACTG | 1.17
93 | CCACTC | 1.13
94 | CCCGCT | 1.37
95 | CTGGAA | 1.26
96 | CTGTGC | 1.12
97 | AATAAA | 1.29
98 | AATCCG | 1.5
99 | ACGGAT | 1.11
